Source: publication PMC13170675, “A Wnt-induced conformational phospho-switch in DVL3 controls association with Frizzled receptors and Wnt/β-catenin signaling” (Science Advances, 2026)
No constants are given. Whether binding was seen depends on the method and setting. Binding seen in cells or lysates may run through a third protein. These calls come from enrichment with a bait or labelling near it, and not all partners need be listed. Blank lines part the entries; values can stand above or below the molecule they belong to.

Chains of the proteins cited; added tags and fusions are not shown. Residues count along the entry.
UniProt Q9P219: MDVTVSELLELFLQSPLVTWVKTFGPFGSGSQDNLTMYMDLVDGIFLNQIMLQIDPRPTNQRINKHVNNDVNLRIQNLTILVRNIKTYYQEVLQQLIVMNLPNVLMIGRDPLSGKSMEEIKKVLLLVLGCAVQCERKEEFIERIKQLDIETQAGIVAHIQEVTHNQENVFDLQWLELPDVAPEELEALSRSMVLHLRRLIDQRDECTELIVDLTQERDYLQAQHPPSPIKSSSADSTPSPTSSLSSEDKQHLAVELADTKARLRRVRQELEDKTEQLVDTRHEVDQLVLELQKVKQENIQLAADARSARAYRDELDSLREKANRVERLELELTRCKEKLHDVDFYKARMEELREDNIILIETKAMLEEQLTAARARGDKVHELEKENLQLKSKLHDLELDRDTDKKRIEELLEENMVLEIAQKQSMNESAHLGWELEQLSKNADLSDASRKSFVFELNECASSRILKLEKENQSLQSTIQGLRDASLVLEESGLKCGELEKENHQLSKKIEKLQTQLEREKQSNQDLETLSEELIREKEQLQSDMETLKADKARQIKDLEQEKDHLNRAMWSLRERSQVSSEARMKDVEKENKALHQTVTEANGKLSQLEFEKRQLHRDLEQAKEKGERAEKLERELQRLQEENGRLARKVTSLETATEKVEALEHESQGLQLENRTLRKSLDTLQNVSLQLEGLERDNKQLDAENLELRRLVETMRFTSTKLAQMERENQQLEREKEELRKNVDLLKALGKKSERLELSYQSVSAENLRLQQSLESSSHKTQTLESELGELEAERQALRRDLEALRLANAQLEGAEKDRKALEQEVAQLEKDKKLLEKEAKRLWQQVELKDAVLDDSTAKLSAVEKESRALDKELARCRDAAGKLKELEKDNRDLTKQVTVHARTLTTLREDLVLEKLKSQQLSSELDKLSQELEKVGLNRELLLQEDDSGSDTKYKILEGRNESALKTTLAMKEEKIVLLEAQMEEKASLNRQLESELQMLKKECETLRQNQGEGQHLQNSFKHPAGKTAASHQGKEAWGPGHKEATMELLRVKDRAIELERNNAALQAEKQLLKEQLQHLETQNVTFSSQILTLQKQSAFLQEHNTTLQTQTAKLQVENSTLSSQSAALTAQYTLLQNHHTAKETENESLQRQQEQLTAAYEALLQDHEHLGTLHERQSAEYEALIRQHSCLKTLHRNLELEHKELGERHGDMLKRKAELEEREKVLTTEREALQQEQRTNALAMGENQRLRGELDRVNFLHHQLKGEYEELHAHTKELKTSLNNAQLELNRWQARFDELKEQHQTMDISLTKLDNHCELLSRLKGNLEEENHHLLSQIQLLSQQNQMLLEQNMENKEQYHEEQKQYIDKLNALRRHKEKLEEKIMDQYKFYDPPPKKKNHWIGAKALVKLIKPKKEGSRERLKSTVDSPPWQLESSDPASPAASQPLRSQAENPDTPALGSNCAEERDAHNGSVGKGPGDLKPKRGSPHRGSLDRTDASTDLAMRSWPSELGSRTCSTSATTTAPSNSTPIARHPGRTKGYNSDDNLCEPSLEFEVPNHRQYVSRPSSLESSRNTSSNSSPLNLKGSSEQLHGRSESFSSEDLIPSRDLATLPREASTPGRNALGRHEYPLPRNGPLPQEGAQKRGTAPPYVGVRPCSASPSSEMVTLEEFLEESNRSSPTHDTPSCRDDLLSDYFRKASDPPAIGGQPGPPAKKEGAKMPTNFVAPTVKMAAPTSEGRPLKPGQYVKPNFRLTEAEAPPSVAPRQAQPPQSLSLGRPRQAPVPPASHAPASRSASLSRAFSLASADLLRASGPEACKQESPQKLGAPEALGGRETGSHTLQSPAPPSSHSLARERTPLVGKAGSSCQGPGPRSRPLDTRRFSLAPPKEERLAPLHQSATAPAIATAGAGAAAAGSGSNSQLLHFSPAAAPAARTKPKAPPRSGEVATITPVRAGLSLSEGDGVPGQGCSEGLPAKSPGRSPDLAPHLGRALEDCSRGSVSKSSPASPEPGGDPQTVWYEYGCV
UniProt P49674: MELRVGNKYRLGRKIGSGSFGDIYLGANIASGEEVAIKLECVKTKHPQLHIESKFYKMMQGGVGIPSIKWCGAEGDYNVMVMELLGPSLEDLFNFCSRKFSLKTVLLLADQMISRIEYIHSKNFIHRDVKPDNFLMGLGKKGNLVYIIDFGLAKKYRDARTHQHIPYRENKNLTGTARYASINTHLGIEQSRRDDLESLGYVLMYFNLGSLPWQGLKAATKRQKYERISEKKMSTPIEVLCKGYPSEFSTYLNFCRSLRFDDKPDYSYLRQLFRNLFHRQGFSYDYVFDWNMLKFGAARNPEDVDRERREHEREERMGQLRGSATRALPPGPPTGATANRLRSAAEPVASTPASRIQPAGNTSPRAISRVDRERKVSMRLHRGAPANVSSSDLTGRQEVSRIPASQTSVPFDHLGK
UniProt O14641: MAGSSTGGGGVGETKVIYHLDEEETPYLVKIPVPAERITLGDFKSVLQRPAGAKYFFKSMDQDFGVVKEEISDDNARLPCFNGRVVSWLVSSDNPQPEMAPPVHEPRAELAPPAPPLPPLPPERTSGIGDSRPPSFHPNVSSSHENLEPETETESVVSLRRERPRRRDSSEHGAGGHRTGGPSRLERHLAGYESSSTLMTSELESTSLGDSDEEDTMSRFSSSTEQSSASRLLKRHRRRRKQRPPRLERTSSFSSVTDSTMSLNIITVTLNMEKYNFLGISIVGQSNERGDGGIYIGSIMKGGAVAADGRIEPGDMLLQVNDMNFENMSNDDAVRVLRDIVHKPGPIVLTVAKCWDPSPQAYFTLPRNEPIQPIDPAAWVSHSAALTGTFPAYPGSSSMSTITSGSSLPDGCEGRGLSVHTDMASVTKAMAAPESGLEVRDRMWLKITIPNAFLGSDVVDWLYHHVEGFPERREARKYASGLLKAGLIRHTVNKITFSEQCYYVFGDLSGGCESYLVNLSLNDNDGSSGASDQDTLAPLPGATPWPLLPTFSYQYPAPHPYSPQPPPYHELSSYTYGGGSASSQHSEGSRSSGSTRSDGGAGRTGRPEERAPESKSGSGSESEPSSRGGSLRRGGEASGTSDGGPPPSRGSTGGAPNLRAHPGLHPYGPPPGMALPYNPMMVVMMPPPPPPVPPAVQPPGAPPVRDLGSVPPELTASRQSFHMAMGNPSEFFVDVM
UniProt Q13467, residues 27-585: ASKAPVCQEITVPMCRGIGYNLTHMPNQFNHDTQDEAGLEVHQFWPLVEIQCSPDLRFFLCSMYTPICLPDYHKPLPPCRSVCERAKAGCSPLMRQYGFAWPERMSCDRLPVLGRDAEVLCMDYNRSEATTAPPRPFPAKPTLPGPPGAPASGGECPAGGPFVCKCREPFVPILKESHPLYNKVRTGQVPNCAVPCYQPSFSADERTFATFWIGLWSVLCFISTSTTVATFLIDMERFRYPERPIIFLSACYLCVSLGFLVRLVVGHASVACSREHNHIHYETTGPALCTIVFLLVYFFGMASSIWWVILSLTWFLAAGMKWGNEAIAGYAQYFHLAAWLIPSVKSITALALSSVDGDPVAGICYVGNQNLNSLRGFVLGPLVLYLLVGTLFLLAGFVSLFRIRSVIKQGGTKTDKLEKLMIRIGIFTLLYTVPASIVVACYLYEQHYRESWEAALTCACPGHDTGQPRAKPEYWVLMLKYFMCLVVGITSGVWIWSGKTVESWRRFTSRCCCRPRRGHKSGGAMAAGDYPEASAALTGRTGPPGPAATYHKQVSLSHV
UniProt Q68DV7, residues 24-783: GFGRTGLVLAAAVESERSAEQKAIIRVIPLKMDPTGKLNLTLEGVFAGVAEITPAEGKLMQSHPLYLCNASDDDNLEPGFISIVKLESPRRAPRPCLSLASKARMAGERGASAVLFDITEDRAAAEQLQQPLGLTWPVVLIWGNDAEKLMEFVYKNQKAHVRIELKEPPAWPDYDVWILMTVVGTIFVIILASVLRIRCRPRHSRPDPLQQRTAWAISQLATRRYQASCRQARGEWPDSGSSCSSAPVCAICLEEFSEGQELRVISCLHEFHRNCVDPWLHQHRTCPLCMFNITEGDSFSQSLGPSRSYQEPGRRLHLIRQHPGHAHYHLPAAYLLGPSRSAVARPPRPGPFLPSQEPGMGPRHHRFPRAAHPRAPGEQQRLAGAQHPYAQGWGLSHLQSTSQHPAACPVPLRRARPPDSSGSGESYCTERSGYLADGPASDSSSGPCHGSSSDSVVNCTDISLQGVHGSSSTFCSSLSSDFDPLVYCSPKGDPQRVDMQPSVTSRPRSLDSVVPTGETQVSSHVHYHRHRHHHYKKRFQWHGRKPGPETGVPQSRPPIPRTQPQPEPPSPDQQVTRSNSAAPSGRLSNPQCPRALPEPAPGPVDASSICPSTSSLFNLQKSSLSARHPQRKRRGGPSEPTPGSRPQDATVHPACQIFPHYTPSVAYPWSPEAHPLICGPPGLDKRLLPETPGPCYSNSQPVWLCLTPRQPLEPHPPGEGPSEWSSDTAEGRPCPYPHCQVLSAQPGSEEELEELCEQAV
UniProt P34925, residues 26-607: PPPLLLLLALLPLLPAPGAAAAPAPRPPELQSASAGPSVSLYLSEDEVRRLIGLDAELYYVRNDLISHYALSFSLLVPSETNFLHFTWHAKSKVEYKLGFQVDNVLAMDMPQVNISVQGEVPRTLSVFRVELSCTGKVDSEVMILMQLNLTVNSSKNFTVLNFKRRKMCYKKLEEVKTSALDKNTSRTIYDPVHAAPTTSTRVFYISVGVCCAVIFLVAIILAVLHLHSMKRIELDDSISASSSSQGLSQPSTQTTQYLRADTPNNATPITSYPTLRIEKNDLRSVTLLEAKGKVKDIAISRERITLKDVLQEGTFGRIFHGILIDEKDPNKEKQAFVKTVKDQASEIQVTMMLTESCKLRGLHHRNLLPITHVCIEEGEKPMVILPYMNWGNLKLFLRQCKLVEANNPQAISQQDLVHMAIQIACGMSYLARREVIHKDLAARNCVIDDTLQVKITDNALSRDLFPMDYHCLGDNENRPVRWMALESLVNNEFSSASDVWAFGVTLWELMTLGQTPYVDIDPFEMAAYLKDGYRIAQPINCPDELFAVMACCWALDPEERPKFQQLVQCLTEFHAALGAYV
UniProt O95271: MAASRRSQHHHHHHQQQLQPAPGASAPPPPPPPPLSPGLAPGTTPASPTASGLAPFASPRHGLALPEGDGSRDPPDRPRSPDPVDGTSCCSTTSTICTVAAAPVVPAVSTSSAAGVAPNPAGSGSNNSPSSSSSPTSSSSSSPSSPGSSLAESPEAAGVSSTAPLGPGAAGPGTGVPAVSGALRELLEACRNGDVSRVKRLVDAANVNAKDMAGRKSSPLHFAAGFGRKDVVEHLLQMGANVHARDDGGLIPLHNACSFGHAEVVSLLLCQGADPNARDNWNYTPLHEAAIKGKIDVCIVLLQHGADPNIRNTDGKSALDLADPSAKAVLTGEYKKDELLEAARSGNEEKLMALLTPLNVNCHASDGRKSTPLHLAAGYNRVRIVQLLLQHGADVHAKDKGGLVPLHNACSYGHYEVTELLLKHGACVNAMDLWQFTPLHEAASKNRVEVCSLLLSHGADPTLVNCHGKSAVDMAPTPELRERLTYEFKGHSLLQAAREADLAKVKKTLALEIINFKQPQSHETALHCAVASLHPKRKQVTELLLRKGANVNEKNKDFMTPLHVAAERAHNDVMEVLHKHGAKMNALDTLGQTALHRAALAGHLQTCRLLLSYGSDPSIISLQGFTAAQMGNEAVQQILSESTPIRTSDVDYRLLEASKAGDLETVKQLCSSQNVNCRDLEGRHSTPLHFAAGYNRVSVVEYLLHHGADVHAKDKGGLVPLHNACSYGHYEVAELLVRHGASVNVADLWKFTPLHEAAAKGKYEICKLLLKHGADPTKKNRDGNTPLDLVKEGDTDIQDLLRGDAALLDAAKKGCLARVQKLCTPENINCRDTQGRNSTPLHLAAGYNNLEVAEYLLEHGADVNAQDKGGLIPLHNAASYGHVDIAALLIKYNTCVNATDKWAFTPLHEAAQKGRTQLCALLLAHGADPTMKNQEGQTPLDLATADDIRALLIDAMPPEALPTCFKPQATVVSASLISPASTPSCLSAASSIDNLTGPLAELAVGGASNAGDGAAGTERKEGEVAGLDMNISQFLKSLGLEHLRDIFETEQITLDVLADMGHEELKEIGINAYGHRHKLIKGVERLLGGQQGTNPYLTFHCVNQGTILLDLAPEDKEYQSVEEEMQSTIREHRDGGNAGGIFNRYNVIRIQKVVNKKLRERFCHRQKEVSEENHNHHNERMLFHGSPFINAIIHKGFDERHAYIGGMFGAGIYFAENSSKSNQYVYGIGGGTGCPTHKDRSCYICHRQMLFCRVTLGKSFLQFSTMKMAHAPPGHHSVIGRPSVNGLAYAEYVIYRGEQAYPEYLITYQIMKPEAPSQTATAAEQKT

What was measured:
TurboID-DVL3 WT (human) = molecular target: T1, TurboID-DVL3 WT (human) (UniProt Q92997); assay: proximity labelling; TurboID fused N-terminally to DVL3 in Flp-In T-REx 293 cells, doxycycline 24 hours, 50 μM biotin 30 min, streptavidin pull-down, LC-MS/MS (DIA); compared with TurboID alone and with WT
T1 sequence: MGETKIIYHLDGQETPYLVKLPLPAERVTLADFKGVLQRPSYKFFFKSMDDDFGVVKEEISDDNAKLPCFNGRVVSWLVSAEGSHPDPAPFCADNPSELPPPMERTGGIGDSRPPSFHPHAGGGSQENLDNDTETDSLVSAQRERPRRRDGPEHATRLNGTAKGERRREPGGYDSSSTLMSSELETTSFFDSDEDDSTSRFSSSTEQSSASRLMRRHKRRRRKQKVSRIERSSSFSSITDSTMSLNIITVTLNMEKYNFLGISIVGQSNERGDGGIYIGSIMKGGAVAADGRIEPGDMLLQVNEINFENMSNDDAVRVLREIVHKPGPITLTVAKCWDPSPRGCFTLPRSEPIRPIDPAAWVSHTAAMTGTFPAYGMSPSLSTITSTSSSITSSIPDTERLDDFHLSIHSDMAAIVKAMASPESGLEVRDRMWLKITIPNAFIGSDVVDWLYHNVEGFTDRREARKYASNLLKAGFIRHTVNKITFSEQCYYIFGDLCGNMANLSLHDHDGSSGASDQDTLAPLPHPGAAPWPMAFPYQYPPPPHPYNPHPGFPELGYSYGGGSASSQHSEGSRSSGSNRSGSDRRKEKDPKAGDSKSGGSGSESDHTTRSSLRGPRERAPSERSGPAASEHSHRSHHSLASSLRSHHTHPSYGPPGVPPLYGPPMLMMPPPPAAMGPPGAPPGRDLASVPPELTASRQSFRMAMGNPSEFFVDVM

[1] = molecular target: TurboID-DVL3 Δ S/T (human) (UniProt Q92997); assay: as above

- binding (TurboID-DVL3 WT (human)): binds
- binding [1]: binds
Molecule: AXIN1 (from UniProt O15169 1-862)

- binding (TurboID-DVL3 WT (human)): binds
- binding [1]: binds
Molecule: CCDC88C/Daple (from UniProt Q9P219 1-2028)

- binding (TurboID-DVL3 WT (human)): binds
- binding [1]: binds
Molecule: CK1ε (CSNK1E) (from UniProt P49674 1-416) (enzyme)

- binding (TurboID-DVL3 WT (human)): binds
- binding [1]: binds
Molecule: DVL2 (from UniProt O14641 1-736)

- binding [1]: binds
Molecule: FZD5 (from UniProt Q13467 27-585) (receptor)

- binding [1]: binds
Molecule: RNF43 (from UniProt Q68DV7 24-783) (enzyme)

- binding [1]: binds
Molecule: RYK (from UniProt P34925 26-607) (receptor)

- binding (TurboID-DVL3 WT (human)): binds
- binding [1]: binds
Molecule: TNKS (from UniProt O95271 1-1327) (enzyme)

- binding [1]: binds
Molecule: ZNRF3 (from UniProt Q9ULT6 56-936) (enzyme)

- binding [1]: binds
B1: FZD3 (receptor, UniProt Q9NPG1 23-666)
chain: HSLFSCEPITLRMCQDLPYNTTFMPNLLNHYDQQTAALAMEPFHPMVNLDCSRDFRPFLCALYAPICMEYGRVTLPCRRLCQRAYSECSKLMEMFGVPWPEDMECSRFPDCDEPYPRLVDLNLAGEPTEGAPVAVQRDYGFWCPRELKIDPDLGYSFLHVRDCSPPCPNMYFRREELSFARYFIGLISIICLSATLFTFLTFLIDVTRFRYPERPIIFYAVCYMMVSLIFFIGFLLEDRVACNASIPAQYKASTVTQGSHNKACTMLFMILYFFTMAGSVWWVILTITWFLAAVPKWGSEAIEKKALLFHASAWGIPGTLTIILLAMNKIEGDNISGVCFVGLYDVDALRYFVLAPLCLYVVVGVSLLLAGIISLNRVRIEIPLEKENQDKLVKFMIRIGVFSILYLVPLLVVIGCYFYEQAYRGIWETTWIQERCREYHIPCPYQVTQMSRPDLILFLMKYLMALIVGIPSVFWVGSKKTCFEWASFFHGRRKKEIVNESRQVLQEPDFAQSLLRDPNTPIIRKSRGTSTQGTSTHASSTQLAMVDDQRSKAGSIHSKVSSYHGSLHRSRDGRYTPCSYRGMEERLPHGSMSRLTDHSRHSSSHRLNEQSRHSSIRDLSNNPMTHITHGTSMNRVIEEDGTSA

- binding [1]: binds
B2: FZD6 (receptor, UniProt O60353 19-706)
chain: HSLFTCEPITVPRCMKMAYNMTFFPNLMGHYDQSIAAVEMEHFLPLANLECSPNIETFLCKAFVPTCIEQIHVVPPCRKLCEKVYSDCKKLIDTFGIRWPEELECDRLQYCDETVPVTFDPHTEFLGPQKKTEQVQRDIGFWCPRHLKTSGGQGYKFLGIDQCAPPCPNMYFKSDELEFAKSFIGTVSIFCLCATLFTFLTFLIDVRRFRYPERPIIYYSVCYSIVSLMYFIGFLLGDSTACNKADEKLELGDTVVLGSQNKACTVLFMLLYFFTMAGTVWWVILTITWFLAAGRKWSCEAIEQKAVWFHAVAWGTPGFLTVMLLAMNKVEGDNISGVCFVGLYDLDASRYFVLLPLCLCVFVGLSLLLAGIISLNHVRQVIQHDGRNQEKLKKFMIRIGVFSGLYLVPLVTLLGCYVYEQVNRITWEITWVSDHCRQYHIPCPYQAKAKARPELALFMIKYLMTLIVGISAVFWVGSKKTCTEWAGFFKRNRKRDPISESRRVLQESCEFFLKHNSKVKHKKKHYKPSSHKLKVISKSMGTSTGATANHGTSAVAITSHDYLGQETLTEIQTSPETSMREVKADGASTPRLREQDCGEPASPAASISRLSGEQVDGKGQAGSVSESARSEGRISPKSDITDTGLAQSNNLQVPSSSEPSSLKGSTSLLVHPVSGVRKEQGGGCHSDT

- binding (TurboID-DVL3 WT (human)): binds
- binding [1]: binds
B3: VANGL1 (protein, UniProt Q8TAA9 1-524)
chain: MDTESTYSGYSYYSSHSKKSHRQGERTRERHKSPRNKDGRGSEKSVTIQPPTGEPLLGNDSTRTEEVQDDNWGETTTAITGTSEHSISQEDIARISKDMEDSVGLDCKRYLGLTVASFLGLLVFLTPIAFILLPPILWRDELEPCGTICEGLFISMAFKLLILLIGTWALFFRKRRADMPRVFVFRALLLVLIFLFVVSYWLFYGVRILDSRDRNYQGIVQYAVSLVDALLFIHYLAIVLLELRQLQPMFTLQVVRSTDGESRFYSLGHLSIQRAALVVLENYYKDFTIYNPNLLTASKFRAAKHMAGLKVYNVDGPSNNATGQSRAMIAAAARRRDSSHNELYYEEAEHERRVKKRKARLVVAVEEAFIHIQRLQAEEQQKAPGEVMDPREAAQAIFPSMARALQKYLRITRQQNYHSMESILQHLAFCITNGMTPKAFLERYLSAGPTLQYDKDRWLSTQWRLVSDEAVTNGLRDGIVFVLKCLDFSLVVNVKKIPFIILSEEFIDPKSHKFVLRLQSETSV

- binding (TurboID-DVL3 WT (human)): binds
- binding [1]: binds
B4: TNKS2 (enzyme, UniProt Q9H2K2 1-1166)
chain: MSGRRCAGGGAACASAAAEAVEPAARELFEACRNGDVERVKRLVTPEKVNSRDTAGRKSTPLHFAAGFGRKDVVEYLLQNGANVQARDDGGLIPLHNACSFGHAEVVNLLLRHGADPNARDNWNYTPLHEAAIKGKIDVCIVLLQHGAEPTIRNTDGRTALDLADPSAKAVLTGEYKKDELLESARSGNEEKMMALLTPLNVNCHASDGRKSTPLHLAAGYNRVKIVQLLLQHGADVHAKDKGDLVPLHNACSYGHYEVTELLVKHGACVNAMDLWQFTPLHEAASKNRVEVCSLLLSYGADPTLLNCHNKSAIDLAPTPQLKERLAYEFKGHSLLQAAREADVTRIKKHLSLEMVNFKHPQTHETALHCAAASPYPKRKQICELLLRKGANINEKTKEFLTPLHVASEKAHNDVVEVVVKHEAKVNALDNLGQTSLHRAAYCGHLQTCRLLLSYGCDPNIISLQGFTALQMGNENVQQLLQEGISLGNSEADRQLLEAAKAGDVETVKKLCTVQSVNCRDIEGRQSTPLHFAAGYNRVSVVEYLLQHGADVHAKDKGGLVPLHNACSYGHYEVAELLVKHGAVVNVADLWKFTPLHEAAAKGKYEICKLLLQHGADPTKKNRDGNTPLDLVKDGDTDIQDLLRGDAALLDAAKKGCLARVKKLSSPDNVNCRDTQGRHSTPLHLAAGYNNLEVAEYLLQHGADVNAQDKGGLIPLHNAASYGHVDVAALLIKYNACVNATDKWAFTPLHEAAQKGRTQLCALLLAHGADPTLKNQEGQTPLDLVSADDVSALLTAAMPPSALPSCYKPQVLNGVRSPGATADALSSGPSSPSSLSAASSLDNLSGSFSELSSVVSSSGTEGASSLEKKEVPGVDFSITQFVRNLGLEHLMDIFEREQITLDVLVEMGHKELKEIGINAYGHRHKLIKGVERLISGQQGLNPYLTLNTSGSGTILIDLSPDDKEFQSVEEEMQSTVREHRDGGHAGGIFNRYNILKIQKVCNKKLWERYTHRRKEVSEENHNHANERMLFHGSPFVNAIIHKGFDERHAYIGGMFGAGIYFAENSSKSNQYVYGIGGGTGCPVHKDRSCYICHRQLLFCRVTLGKSFLQFSAMKMAHSPPGHHSVTGRPSVNGLALAEYVIYRGEQAYPEYLITYQIMRPEGMVDG
